Test results published in patent publication US11390664B2, “Antibodies that potently neutralize hepatitis B virus and uses thereof” (priority 2015, dated 2022).
Some results were stated once for a whole list of compounds, not compound by compound.

Test system: HBV (genotype D)
Experiment: HBV spreading in humanized uPA/SCID mice, treatment from 3 weeks post-infection
Assay type: in vivo, uPA/SCID mice repopulated with primary human hepatocytes
Conditions: end of experiment, week 9

## C=C1[C@H](CO)[C@@H](O)C[C@@H]1n1cnc2c(=O)[nH]c(N)nc21 [entecavir]
  HBcAg-positive cells (hepatocytes): 1-5%
